Experimental data: PubChem BioAssay AID686943 (Drosophila RNAi Screening Center, 2013)
In all, the deposit lists about 23,000 reagents; below is an unselected part of those that have a named target and a result. 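Extra replicates exist only for a retested subset of genes; insulin dose and duration not given; both raised and lowered dpERK matter.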 Reagent sequences are not shown. The record does not give: the amount of reagent, the time to read-out.

Test: 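Knockdowns that increase or decrease active ERK after insulin receptor stimulation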 (primary screen)
Cell system: Drosophila S2R+ haemocyte-like cells expressing YFP-tagged ERK (Rolled)
Reagents: long dsRNA against Drosophila genes
Treatment: insulin stimulation versus unstimulated cells; dose and duration not given
Read-out: 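Antibody staining for doubly phosphorylated ERK divided by ERK-YFP signal, as plate z-scores, in insulin-treated and untreated cells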
Reading the numbers: replicate 1, z-score of dpERK with insulin and replicate 2, z-score of dpERK with insulin: higher = more active ERK per ERK-YFP after insulin; replicate 1, z-score of dpERK under basal conditions: higher = more basal active ERK per ERK-YFP; replicate 1, z-score of ERK-YFP with insulin: higher = more YFP-tagged ERK signal

target gene	amplicon	replicate 1, z-score of dpERK with insulin	replicate 2, z-score of dpERK with insulin	replicate 1, z-score of dpERK under basal conditions	replicate 1, z-score of ERK-YFP with insulin
gwl (greatwall)	DRSC16305	-0.14	0.41	-0.37	0.06
Osi19 (Osiris 19)	DRSC12569	0.26	-0.34	-0.14	-2.33
cni (cornichon)	DRSC03512	-0.47	0.31	-0.95	1.32
CG31038	DRSC15051	-0.41	-0.37	0.37	0.29
CG31038	DRSC16326	0.05	0.43	2.27	-0.82
CG31038	DRSC16327	-0.42	0.05	0.53	0.27
Torsin	DRSC18570	-0.46	-0.91	0.26	0.42
Sfp26Ad (Seminal fluid protein 26Ad)	DRSC00904	-0.84	0.24	0.02	0.46

Ordered by “replicate 2, z-score of dpERK with insulin” (lowest first): 2 of the entries above.
target gene	amplicon	replicate 1, z-score of dpERK with insulin	replicate 2, z-score of dpERK with insulin	replicate 1, z-score of dpERK under basal conditions	replicate 1, z-score of ERK-YFP with insulin
CG31038	DRSC15051	-0.41	-0.37	0.37	0.29
cni (cornichon)	DRSC03512	-0.47	0.31	-0.95	1.32

The listing continues:
target gene	amplicon	replicate 1, z-score of dpERK with insulin	replicate 2, z-score of dpERK with insulin	replicate 1, z-score of dpERK under basal conditions	replicate 1, z-score of ERK-YFP with insulin
Dic4	DRSC10317	-0.53	1.45	0.84	0.52
CG3880	DRSC04428	0.36	0.52	1.03	0.56
CG3880	DRSC21404	-2.43	-0.19	-1.39	-0.44
CG6362	DRSC07413	0.1	0	0.05	0.34
CG11839	DRSC14398	-0.04	0.04	0.15	0.08
CG31928	DRSC00293	0.73	0.21	-0.12	0.03
BthD (BthD selenoprotein)	DRSC19395	0.14	-0.62	0.92	0.21
Rala (Ras-like protein A)	DRSC18703	-0.77	-0.76	-0.36	1.14
Sgs5 (Salivary gland secretion 5)	DRSC16862	0.98	0.71	-0.2	0.29
CG12224	DRSC14480	0.8	0	0.63	-0.6
CG13438	DRSC06398	-0.88	0.29	-0.37	0.28
dwg (deformed wings)	DRSC18766	0.74	-0.01	-0.21	1.28
Tcs5 (Threonyl-carbamoyl synthesis 5)	DRSC09774	0.09	1.33	0.03	0.07
flip (flippy)	DRSC12326	0.02	-0.25	-0.58	-0.04
CG5078	DRSC11762	-0.3	-0.13	0.73	0.05
